Columns and labels:
[1] = target: T1, pxENB17-RBD-His (SARS-CoV-2, UniProt P0DTC2 319-541)
[2] = target: T1, pxENB17-RBD-His; assay: BLI (Octet), ACE2 construct loaded on SA tips by its tag, RBD as analyte
[3] = target: pxENB9-FLS-CT-His (SARS-CoV-2, UniProt P0DTC2 15-1213)

B1: pxEBNCP21_hACE2-3A-mIgG1(h23)TST (Fc fusion)
chain: QSTIEEQAKTFLDKFNHEAEDLFYQSSLASWNYNTNITEENVQNMNNAGDKWSAFLKEQSTLAQMYPLQEIQNLTVKLQLQALQQNGSSVLSEDKSKRLNTILNTMSTIYSTGKVCNPDAPAECLLLEPGLNEIMANSLDYNERLWAWESWRSEVGKALRPLYEEYVVLKNEMARANHYEDYGDYWRGDYEVNGVDGYDYSRGQLIEDVEHTFEEIKPLYEHLHAYVRAKLMNAYPSYISPIGCLPAHLLGDMWGRFWTNLYSLTVPFGQKPNIDVTDAMVDQAWDAQRIFKEAEKFFVSVGLPNMTQGFWENSMLTDPGNVQKAVCHPTAWDLGKGDFRILMCTKVTMDDFLTAHHEMGHIQYDMAYAAQPFLLRNGANEGFHEAVGEIMSLSAATPKHLKSIGLLSPDFQEDNETEINFLLKQALTIVGTLPFTYMLEKWRWMVFKGEIPKDQWMKKWWEMKREIVGVVEPVPHDETYCDPASLFHVSNDYSFIRYYTRTLYQFQFQEALCQAAKHEGPLHKCDISNSTEAGQKLFNMLRLGKSEPWTLALENVVGAKNMNVRPLLNYFEPLFTWLKDQNKNSFVGWSTDWSPYADVPRDCGCKPCICTVPEVSSVFIFPPKPKDVLTITLTPKVTCVVVDISKDDPEVQFSWFVDDVEVHTAQTQPREEQFNSTFRSVSELPIMHQDWLNGKEFKCRVNSAAFPAPIEKTISKTKGRPKAPQVYTIPPPKEQMAKDKVSLTCMITDFFPEDITVEWQWNGQPAENYKNTQPIMNTNGSYFVYSKLNVQKSNWEAGNTFTCSVLHEGLHNHHTEKSLSHSPGKGGSGWSHPQFEKGGGSGGGSGGSAWSHPQFEK
Kd [1]: 56.5 nM
Response, shift in Wavelength (nm) [2]: 0.0063 nm
Kd [3]: 100 nM

Source: patent publication US20240400618A1 (GRIFOLS DIAGNOSTIC SOLUTIONS, published 2024)
